Data from paper PMC11982375.

Chains of the proteins cited; added tags and fusions are not shown. Lines headed by an entry give the natural chain unless they say otherwise; changes in a name come on top.
UniProt P50876: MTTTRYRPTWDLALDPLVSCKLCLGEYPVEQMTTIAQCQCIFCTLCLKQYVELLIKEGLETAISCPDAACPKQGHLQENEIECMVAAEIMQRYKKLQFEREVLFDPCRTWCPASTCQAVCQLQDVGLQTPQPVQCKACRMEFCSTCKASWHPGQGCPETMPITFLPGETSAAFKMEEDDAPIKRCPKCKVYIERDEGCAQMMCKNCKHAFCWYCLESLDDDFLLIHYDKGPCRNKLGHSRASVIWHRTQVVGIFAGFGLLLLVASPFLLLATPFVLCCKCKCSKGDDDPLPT

Target: GST-RNF144A (UniProt P50876)
Test: pull-down; GST pull down: GST-tagged recombinant protein mixed with His- or Intein-tagged recombinant protein in 20 mM Tris, 150 mM NaCl, 1 mM EDTA, 0.5% Triton-X; Glutathione Sepharose 4B overnight at 4 °C; immunoblot; both purified

For “Intein-VRK2 (from UniProt Q86Y07-1 1-508) (enzyme)”, the binding was “binds”.

Results are given in words; binding and its absence hold for the method and conditions named. Binding can be weak; no strength is given.
